These are yes or no findings as the source states them, for the method shown. In cells and extracts the contact can be indirect. Here binding means that the protein was enriched with, or labelled near, the bait; the list need not be complete. Sequences can lack the tags named with a protein.
Legend:
[1] = target: Pxd1 (SPCC1322.02) used as bait for AP-MS (S. pombe) (UniProt O94542); assay: affinity purification with mass spectrometry; tagged bait (Saw1 with a YFP-FLAG-His6 tag, purified using anti-YFP beads; Pxd1 as bait) from fission yeast, co-purified proteins analysed by mass spectrometry
[2] = target: Saw1 tagged with a YFP-FLAG-His6 (YFH) tag (S. pombe) (UniProt Q9UUA8); assay: as above

Amino acid sequences for entries named in this document (tags omitted). A change or cut given only in a name is not applied to a line headed by its entry.
UniProt O94542: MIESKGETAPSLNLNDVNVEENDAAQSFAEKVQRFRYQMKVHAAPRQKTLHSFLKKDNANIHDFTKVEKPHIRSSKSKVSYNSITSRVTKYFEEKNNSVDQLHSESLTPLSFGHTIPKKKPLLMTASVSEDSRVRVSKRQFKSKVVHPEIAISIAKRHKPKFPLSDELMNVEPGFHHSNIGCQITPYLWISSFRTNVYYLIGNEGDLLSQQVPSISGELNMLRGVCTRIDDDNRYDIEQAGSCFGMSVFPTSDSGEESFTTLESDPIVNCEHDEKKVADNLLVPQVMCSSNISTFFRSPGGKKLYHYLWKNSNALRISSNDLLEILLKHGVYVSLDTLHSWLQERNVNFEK
UniProt Q9UUA8: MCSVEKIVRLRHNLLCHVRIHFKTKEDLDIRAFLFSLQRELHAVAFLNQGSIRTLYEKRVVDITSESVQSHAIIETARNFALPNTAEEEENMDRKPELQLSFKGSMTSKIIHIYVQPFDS

| binding [1] | binding [2] | Binder |
| --- | --- | --- |
| binds |  | Dna2, untagged, endogenous (protein, UniProt Q9URU2 1-1397) MFNDQSKTTSSVKGICATTDNNHGNLKKTNSTPFRKNYLLNGRTKLKLENFAYNASTEISSPKISEKKHSSLPIKRKNTFNESSTSFSPFTKAHKEITDDLKPDKSFTRKSDLNSQDMPVCFQETSKDLCRSSSTQHLLDHQTTDSTIIDMKPVSTNSKSDVFTLYTDETVLLRRCASDNKPLINNNLSSSNVSENQSRSFGSYDEVKNQGNNLHKVPSLVSIIRNARSSEQSRIAANSSCLLKGSDTEIDEDDFALEAEDLAALDSLERQYSQLPNSTVTASAKDIEKTAKVNHVGGDLQSYCSATKASDATINEEPVNLALDKACNSLPDINSDFIDDWDDSCDGCTPGELCEFSSEYTVLEVHEDFIFHEGNHFRQLKLILEANDILHQLFLRGDWTETSIFVGDSIRVEATFDKDNTAIVDNDKGLIIIHPKILMSATAVASSFPCLRKAVISDRVGIYGPPTKAMVTGNILHDFFQHALYRGIDALENVDINLETSIKTYISDIYFADLSLDEIREELDARLPLLKSIVERYLISKKNDNNNESIHISRLLDIEESIWSPRFGLKGNIDATVEVVLTEKPESSSTLTLPLELKTGRYVDNISHFAQSLLYTLLISDRYGINTNQALLCYLENSTIKNLVASNSQLRGLIMTRNSLAQHNFRRSLPEMISNRKICDHCSLVSECLFFQKMSDKGVANSNGLTESWNEWMREVKDEDLEFYKKWEKLLNQEERLLLLKRGDVLTFDTEELEAYGKTLYPLYITKEDIVCLEIDDRVFHYKFAFLNDNGYPRNFLHSGFSVGERVFISDEHGHWSLAKGHIVHIQDSCIEVRTRHRLHIPWLKMPNFDFKKNQVFFGNYEDSKLSFIGSNHTRYRIDKDEFSSGIASIRGTLMSSVLPDAPLIIRDMIIRLKPPKFCNSALIDPEFLKCLNEDQITALKKCHAAEHYSLILGMPGTGKTTTISSLIRSLLAKKKKILLTSFTHLAVDNILIKLKGCDSTIVRLGSPHKIHPLVKEFCLTEGTTFDDLASLKHFYEDPQIVACSSLGVYHSIFNKRKFDYCIIDEASQIPLPICLGPLQLAEKFVLVGDHYQLPPLVKNSRTSKDGLSLSLFKLLSEKHPEAVTTLRLQYRMNEDINSLSSELIYGGNLVCGSKTISQKKLILPKAHLSDGLPDSSSSLHWVNKLINPSHSVIFFNTDDILGVESKTNNILENHTEAFLIEQAVSSFLERGVKQSSIGIISIYKSQVELLSKNLKSFTEIEINTVDRYQGRDKDIILISFVRSNSKNLVGELLRDWHRLNVALSRAKVKCIMFGSLSTLSSSNIVSHLLKLLEKNKWIFTLNENDIATKFDENSSPIKDCSQVATTNNAKVIIRKNQRFFNSDNLCEKAILPQLEF |
| binds | binds | Swi10, untagged, endogenous (protein, UniProt Q06182 1-252) MSDIDDEEFEQLAVSALEEVEKKAGFAQQPTPQKVSRVTAHSILVNPRQKGNPLLPHVRNVPWEYTDIVPDFVMGTGICSLFLSLKYHHLHPEYIYSRISKLGKSYNLRILLILVDVENHQASIQELVKTSIVNQYTLILAWSSEEAARYLETYKAYENMSPALIMEKPSTDYLSQVQSFLTSIRGINKSDSLSLLSKFGSLERALVASRDELEQLEGWGPTKVNRFLEAVQQPFMSHSTIKRPEAINLKQT |
| binds | binds | Rad16, untagged, endogenous (protein, UniProt P36617 1-877) METKVHLPLAYQQQVFNELIEEDGLCVIAPGLSLLQIAANVLSYFAVPGSLLLLVGANVDDIELIQHEMESHLEKKLITVNTETMSVDKREKSYLEGGIFAITSRILVMDLLTKIIPTEKITGIVLLHADRVVSTGTVAFIMRLYRETNKTGFIKAFSDDPEQFLMGINALSHCLRCLFLRHVFIYPRFHVVVAESLEKSPANVVELNVNLSDSQKTIQSCLLTCIESTMRELRRLNSAYLDMEDWNIESALHRSFDVIVRRQLDSVWHRVSPKTKQLVGDLSTLKFLLSALVCYDCVSFLKLLDTLVLSVNVSSYPSNAQPSPWLMLDAANKMIRVARDRVYKESEGPNMDAIPILEEQPKWSVLQDVLNEVCHETMLADTDAETSNNSIMIMCADERTCLQLRDYLSTVTYDNKDSLKNMNSKLVDYFQWREQYRKMSKSIKKPEPSKEREASNTTSRKGVPPSKRRRVRGGNNATSRTTSDNTDANDSFSRDLRLEKILLSHLSKRYEPEVGNDAFEVIDDFNSIYIYSYNGERDELVLNNLRPRYVIMFDSDPNFIRRVEVYKATYPKRSLRVYFMYYGGSIEEQKYLFSVRREKDSFSRLIKERSNMAIVLTADSERFESQESKFLRNVNTRIAGGGQLSITNEKPRVIVDLREFRSSLPSILHGNNFSVIPCQLLVGDYILSPKICVERKSIRDLIQSLSNGRLYSQCEAMTEYYEIPVLLIEFEQHQSFTSPPFSDLSSEIGKNDVQSKLVLLTLSFPNLRIVWSSSAYVTSIIFQDLKAMEQEPDPASAASIGLEAGQDSTNTYNQAPLDLLMGLPYITMKNYRNVFYGGVKDIQEASETSERKWSELIGPEAGRRLYSFFRKQLKDYE |
| binds |  | Cdc24, untagged, endogenous (protein, UniProt O75004 1-501) MDFPGLIKKIKEDLENRLVEKSKQPAFTDYWLINKTISLLKEYPSGFSYPILINEIELACSERNKLDNVFSSLEWLTKSDAVIYLEDQFHFHCYDYYYTPIPSLKLKDSEENTCEMILHSSFYLLFHEPFNILKGSTLRFSQSRIHQKWYLRKQIRFLPTTSFVPVLQYAASKSFVKSMVESTEHEFFQIRDITISKSDQGVKRITVELGRIISLDKKGAFLIDNNTNFIHFSGTYHDFPKLLDKQQYLLIPFWSTVWEGSTNWQDGMIGILVILSENDFEEKKCDSWQVGRLAAVNSNFLVLDNNGQRVKILYSNSQKHYFKDTYIGDLLCISPINHSSDNLSDYSCVSDTTTEILSNLENPLSSNFLRNDLCKFSNLFSGVSGHLKIQPLTLVITGFVANLTRQSDLNTSLVLPEVNPLTAKMEVIDCLRNSFWAALRPNCVSYFASMISGFKELFQKEMEFPIYLDLKSYKLGFHWCDIYVDSEHNCHIQKINSLPCE |
